From paper PMC10941186, “Real-Time Biosynthetic Reaction Monitoring Informs the Mechanism of Action of Antibiotics” (Journal of the American Chemical Society, 2024)
Results are given in words; binding and its absence hold for the method and conditions named.

Experiments:
[1] = molecular target: PgpB, Escherichia coli (PgpB^Ec) (Escherichia coli) (UniProt P0A924); assay: native MS; PgpB^Ec released from LDAO micelles, 200 mM ammonium acetate pH 8.0, 0.05% LDAO, activation 100-200 V; also after less stringent purification (apo and cardiolipin-bound monomer); both purified
[2] = molecular target: PgpB, Escherichia coli (PgpB^Ec) (Escherichia coli) (UniProt P0A924); assay: native MS; PgpB^Ec equilibrated with fourfold molar excess of exogenous POPE; both purified

binding [1]: no binding | binding [2]: no binding
B1: PgpB, Escherichia coli (PgpB^Ec) (enzyme, UniProt P0A924 2-254)
chain: RSIARRTAVGAALLLVMPVAVWISGWRWQPGEQSWLLKAAFWVTETVTQPWGVITHLILFGWFLWCLRFRIKAAFVLFAILAAAILVGQGVKSWIKDKVQEPRPFVIWLEKTHHIPVDEFYTLKRAERGNLVKEQLAEEKNIPQYLRSHWQKETGFAFPSGHTMFAASWALLAVGLLWPRRRTLTIAILLVWATGVMGSRLLLGMHWPRDLVVATLISWALVAVATWLAQRICGPLTPPAEENREIAQREQES
